Results are given in words; binding and its absence hold for the method and conditions named. In cells and extracts the contact can be indirect. Some entries that bind do so weakly or less than the wild type. For some of these results: Sequences can lack the tags named with a protein.
Key:
[1] = molecular target: T1, WDR63 (endogenous, mouse testicular extracts) (mouse (endogenous in testis)) (UniProt B2RY71); test: co-IP; co-IP followed by immunoblotting for DNAH2 and DNAH10 (Supplementary Fig. S5d); sample and precipitating antibody not given
T1 sequence: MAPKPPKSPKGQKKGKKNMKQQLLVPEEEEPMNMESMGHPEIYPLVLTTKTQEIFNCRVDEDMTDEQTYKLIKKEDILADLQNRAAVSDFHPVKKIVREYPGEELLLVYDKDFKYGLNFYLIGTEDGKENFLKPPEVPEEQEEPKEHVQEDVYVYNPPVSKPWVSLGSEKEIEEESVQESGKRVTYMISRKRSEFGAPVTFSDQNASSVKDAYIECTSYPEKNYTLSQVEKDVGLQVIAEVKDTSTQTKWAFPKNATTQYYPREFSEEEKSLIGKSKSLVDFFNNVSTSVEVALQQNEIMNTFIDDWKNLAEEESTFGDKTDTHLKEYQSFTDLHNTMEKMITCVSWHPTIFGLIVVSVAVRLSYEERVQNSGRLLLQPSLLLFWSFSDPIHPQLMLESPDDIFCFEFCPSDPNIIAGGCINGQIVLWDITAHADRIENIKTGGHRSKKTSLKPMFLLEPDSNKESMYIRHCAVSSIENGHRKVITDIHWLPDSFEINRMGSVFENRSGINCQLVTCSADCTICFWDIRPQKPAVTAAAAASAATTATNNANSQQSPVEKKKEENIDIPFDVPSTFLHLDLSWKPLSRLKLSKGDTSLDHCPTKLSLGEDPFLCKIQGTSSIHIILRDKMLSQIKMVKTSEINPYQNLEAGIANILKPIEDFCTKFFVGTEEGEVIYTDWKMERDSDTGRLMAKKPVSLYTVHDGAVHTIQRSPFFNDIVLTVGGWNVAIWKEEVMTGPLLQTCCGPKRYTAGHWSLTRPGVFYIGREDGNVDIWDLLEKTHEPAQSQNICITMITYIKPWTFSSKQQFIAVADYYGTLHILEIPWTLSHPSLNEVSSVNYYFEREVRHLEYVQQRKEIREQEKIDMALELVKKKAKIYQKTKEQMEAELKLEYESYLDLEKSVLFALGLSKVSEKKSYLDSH

Protein sequences, listed by entry. Tags and fused reporters are not part of them.
UniProt P0C6F1: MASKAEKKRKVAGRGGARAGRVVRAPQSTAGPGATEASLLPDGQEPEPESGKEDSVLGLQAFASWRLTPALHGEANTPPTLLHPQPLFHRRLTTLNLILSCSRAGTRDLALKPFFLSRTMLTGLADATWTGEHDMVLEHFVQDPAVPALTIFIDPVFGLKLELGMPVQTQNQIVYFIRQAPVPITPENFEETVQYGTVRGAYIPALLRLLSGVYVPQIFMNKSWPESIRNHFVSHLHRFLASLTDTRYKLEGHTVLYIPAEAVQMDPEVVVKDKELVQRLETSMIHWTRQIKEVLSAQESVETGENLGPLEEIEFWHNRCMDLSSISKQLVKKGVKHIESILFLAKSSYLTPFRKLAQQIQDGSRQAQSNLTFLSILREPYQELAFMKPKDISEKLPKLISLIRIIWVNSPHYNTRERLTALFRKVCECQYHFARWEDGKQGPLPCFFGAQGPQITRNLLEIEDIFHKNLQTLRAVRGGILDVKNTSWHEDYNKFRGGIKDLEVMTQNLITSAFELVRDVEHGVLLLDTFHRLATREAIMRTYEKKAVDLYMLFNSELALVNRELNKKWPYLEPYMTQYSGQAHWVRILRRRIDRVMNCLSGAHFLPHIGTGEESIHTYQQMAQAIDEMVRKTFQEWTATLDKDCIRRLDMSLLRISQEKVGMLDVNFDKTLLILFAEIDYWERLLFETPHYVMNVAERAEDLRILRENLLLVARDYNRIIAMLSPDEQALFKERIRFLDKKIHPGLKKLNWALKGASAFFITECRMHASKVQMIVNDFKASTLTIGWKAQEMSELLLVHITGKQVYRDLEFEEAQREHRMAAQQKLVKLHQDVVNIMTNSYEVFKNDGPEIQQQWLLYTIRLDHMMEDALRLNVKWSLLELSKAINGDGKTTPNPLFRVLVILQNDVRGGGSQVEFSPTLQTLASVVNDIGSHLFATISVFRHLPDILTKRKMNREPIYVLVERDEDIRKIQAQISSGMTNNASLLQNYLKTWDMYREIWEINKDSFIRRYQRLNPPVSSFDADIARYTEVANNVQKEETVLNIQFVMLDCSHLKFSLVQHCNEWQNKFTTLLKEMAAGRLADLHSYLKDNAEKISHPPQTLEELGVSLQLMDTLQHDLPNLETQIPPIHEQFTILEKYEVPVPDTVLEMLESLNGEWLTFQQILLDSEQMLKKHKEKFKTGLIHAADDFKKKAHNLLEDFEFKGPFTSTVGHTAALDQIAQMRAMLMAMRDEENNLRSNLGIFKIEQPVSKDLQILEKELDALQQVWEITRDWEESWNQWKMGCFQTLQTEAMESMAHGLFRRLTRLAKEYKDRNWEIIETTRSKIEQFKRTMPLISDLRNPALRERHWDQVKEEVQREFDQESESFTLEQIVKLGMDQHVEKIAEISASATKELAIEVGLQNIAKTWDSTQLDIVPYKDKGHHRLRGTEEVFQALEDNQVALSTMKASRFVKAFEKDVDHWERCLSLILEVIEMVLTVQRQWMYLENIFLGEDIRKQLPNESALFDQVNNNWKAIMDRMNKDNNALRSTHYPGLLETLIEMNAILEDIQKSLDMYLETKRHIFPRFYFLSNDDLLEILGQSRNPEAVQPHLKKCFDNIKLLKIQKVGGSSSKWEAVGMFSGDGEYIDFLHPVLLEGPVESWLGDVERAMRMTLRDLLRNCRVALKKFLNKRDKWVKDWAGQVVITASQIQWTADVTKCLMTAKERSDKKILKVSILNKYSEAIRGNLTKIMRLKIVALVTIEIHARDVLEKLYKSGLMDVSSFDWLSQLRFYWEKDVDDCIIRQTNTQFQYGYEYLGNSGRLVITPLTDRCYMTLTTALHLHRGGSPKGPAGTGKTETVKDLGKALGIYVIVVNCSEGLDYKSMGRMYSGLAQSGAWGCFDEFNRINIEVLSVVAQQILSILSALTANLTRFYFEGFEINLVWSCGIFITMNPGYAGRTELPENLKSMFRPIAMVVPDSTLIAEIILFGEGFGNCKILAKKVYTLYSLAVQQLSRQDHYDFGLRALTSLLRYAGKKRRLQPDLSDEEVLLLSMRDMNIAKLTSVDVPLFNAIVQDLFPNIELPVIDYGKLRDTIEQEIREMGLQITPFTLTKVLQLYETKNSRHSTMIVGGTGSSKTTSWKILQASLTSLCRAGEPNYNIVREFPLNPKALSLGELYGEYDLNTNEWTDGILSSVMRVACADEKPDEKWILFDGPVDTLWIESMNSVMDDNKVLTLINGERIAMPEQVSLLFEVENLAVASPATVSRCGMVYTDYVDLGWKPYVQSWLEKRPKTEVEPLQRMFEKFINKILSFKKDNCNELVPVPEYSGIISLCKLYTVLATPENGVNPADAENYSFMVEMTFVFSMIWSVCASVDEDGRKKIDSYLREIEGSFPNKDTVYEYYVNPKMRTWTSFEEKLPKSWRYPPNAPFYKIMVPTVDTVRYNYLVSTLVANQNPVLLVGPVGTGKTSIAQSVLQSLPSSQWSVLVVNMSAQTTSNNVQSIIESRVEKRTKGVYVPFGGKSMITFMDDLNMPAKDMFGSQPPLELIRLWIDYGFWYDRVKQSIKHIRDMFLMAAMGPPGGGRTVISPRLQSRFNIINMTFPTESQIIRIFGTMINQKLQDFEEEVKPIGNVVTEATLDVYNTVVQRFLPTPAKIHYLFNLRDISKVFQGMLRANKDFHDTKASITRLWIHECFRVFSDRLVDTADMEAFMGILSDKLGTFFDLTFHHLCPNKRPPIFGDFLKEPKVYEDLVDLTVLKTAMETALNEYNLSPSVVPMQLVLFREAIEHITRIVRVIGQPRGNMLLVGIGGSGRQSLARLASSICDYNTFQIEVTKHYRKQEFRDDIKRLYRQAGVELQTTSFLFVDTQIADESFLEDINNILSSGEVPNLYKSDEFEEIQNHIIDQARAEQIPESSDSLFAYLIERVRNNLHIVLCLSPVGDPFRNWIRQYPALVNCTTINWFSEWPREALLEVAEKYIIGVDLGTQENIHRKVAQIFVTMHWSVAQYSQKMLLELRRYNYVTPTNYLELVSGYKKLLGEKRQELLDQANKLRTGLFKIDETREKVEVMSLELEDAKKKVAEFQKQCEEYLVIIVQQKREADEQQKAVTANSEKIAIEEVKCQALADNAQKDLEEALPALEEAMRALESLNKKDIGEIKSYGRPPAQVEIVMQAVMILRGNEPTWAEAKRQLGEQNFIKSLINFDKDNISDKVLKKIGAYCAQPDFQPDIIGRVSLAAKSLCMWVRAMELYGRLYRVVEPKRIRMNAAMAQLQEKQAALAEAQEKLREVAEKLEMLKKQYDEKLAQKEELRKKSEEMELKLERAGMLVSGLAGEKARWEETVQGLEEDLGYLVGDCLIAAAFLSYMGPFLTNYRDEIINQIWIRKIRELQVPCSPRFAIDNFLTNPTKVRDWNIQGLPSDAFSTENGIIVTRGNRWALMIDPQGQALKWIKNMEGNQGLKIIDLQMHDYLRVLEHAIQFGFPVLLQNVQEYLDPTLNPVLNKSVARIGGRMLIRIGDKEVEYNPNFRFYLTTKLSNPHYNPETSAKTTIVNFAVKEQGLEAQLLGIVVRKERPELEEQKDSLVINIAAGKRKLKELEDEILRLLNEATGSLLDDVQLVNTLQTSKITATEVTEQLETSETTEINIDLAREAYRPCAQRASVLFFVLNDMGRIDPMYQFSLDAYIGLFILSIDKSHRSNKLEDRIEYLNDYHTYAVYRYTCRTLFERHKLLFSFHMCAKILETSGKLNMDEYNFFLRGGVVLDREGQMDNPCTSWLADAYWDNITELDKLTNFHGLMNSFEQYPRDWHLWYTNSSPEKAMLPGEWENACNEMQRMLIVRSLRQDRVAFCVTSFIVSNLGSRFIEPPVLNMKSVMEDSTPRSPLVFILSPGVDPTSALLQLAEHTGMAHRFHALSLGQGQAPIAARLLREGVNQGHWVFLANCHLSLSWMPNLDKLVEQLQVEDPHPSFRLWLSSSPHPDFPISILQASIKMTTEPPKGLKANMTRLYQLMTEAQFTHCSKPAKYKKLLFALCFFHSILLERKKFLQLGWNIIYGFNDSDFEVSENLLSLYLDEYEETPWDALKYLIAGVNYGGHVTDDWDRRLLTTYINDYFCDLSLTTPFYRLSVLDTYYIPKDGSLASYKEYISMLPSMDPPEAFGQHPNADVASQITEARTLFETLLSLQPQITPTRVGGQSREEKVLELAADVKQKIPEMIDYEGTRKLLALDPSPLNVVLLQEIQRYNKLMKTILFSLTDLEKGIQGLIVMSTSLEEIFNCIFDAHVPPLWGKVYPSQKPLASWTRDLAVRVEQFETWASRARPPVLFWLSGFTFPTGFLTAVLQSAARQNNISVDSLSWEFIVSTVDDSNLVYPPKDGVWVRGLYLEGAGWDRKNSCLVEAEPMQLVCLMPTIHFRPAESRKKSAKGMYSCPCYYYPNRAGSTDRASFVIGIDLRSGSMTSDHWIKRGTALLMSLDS

[2] = molecular target: T1, WDR63 (endogenous, mouse testicular extracts) (mouse (endogenous in testis)); test: co-IP; testicular extracts, immunoprecipitation with anti-WDR63 antibodies, Protein A/G magnetic beads, Western blot for WDR78
[3] = molecular target: T2, HA-WDR63 WT (full-length) (mouse) (UniProt B2RY71); test: co-IP; HA-WDR63 constructs and FLAG-WDR78 transfected into HEK293T cells, collected after 48 h, immunoprecipitation with anti-HA and anti-FLAG antibodies, immunoblot
T2 sequence: T1 sequence

HA-WDR63 ΔN (mouse) = molecular target: T3, HA-WDR63 ΔN (mouse) (UniProt B2RY71); test: as above
T3 sequence: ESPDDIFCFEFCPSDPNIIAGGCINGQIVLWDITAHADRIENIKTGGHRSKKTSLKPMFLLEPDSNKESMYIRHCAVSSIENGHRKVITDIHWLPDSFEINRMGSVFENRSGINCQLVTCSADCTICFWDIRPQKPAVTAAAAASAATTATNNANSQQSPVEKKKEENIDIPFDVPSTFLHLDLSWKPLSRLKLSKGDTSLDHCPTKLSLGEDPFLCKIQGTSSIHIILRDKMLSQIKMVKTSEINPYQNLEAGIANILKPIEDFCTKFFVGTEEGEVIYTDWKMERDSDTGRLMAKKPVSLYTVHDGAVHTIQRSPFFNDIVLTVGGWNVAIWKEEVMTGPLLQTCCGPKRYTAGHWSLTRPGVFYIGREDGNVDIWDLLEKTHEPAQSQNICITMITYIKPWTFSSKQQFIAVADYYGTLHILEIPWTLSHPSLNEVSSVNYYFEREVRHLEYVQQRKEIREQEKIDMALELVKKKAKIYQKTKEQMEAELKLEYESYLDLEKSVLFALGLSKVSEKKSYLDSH

## DNAH2 (from UniProt P0C6F1 1-4456)
[1]
  binding: no binding

B1: WDR78 (endogenous, mouse testicular extracts) (protein, UniProt E9PYY5 1-807)
chain: MHSSPTSTRKQASFAASASAQPRKSISFINPSKSSAGKGYAASNPNKLAVSRTMGFLTDMKPAEKLNVPSAKTVQVLDSKGVDVTPRPLYHPDPHAASAKPNKLLTSQEGSLGSDYISSYSLYQNTLNPSMLGQYTRSVLGSSSVSKSSISTTESMSEDLEDSSYKRDRLASFTDVRVLRSTAEAAISKEELEKTIEIILTETETLRFFDLPTVMFSTESEEAEKIIEKNKKYETLCRNRLGNDLYVERMMQTFNGAPKNKEVQCEKIILEEKGVVATTWDLYDSYNIPETLLAAKRSGYSSKGSLPAKDRDPKIQDSESSSLMDIENVILAKVQEDEEDNSEAILKSDKLHQDLFYMERVLMENVFQPKLAAYRQLPVYKEHEPEEPEETLQVENLKVAEDEPKKEDEEEVEMELELEIATEQSTIPANLERLWSFSCDLTKGLNVSSLSWNKANPDLLAVGYGNFGFREQKKGMACCWSIKNPMWPERIYQSSYGVTSVDFSNSSPNLLAVGYHNGTVAIYNVQSSHNIPVLDSSESPQKHLGPVWQVQWIEQDRGTTGDDKREILVSISADGRISKWIIRKGLDCHDLMRLKRTTATGGKKGGEKEKKGEALISRQAPGMCFAFHPKDTNIYLAGTEEGLIHKCSCSYNEQYLETYRGHKGPVYKVTWNPFCPDVFLSCSADWGVMIWHQDTVKPFLSFYPTTYVVYDVSWSPKSAYIFAAANENRVEIWDLQISTLDPLIVNVANPGIKFTTVLFAKETDCLLVGDSDGQVAVYELRNMPTASDTSRGDVINILLGPKTNHTG
[2]
  binding: binds

B2: FLAG-WDR78 (protein, UniProt E9PYY5 1-807)
chain: B1 chain
[3]
  binding: binds
HA-WDR63 ΔN (mouse)
  binding: binds

— article PMC8593051
